{"source": "PubChem BioAssay AID1259308 (NCATS, 2017)", "test": "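Genes whose loss raises luciferase production in HEK293 cells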 (primary screen)", "cells": "human HEK293 embryonic kidney cells stably expressing firefly luciferase (HEK-CMV-Luc2-Hygro)", "reagent": "single siRNA against human genes, 0.8 pmol siRNA per well", "timing": "72 h", "measurement": "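Luciferase light (ONE-Glo) measured on one replicate plate set and viability (CellTiter-Glo) on the other, scaled to a negative control siRNA, with robust z-scores and luciferase per cell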", "scale": "total luciferase, z-score and total luciferase, % of control: higher = more reporter protein produced", "call rule": "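Active when the median/MAD z-score for overall luciferase is greater than 3; a gene was taken forward for validation with new siRNAs if at least two of its three siRNAs passed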", "calls": "active = raised luciferase; inactive = no rise", "note": "Shown is an unselected part of about 59,000 deposited reagents. Over the whole deposit, about 1,510 (2.6%) were called active. 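Calls use total luciferase alone and ignore viability, so some active siRNAs may act by altering cell number.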 The numbers tell different reagents against one gene apart. Not all columns of the deposit are shown."}
{"gene": "GPRIN2", "reagent no.": 1, "total luciferase, z-score": -0.406, "total luciferase, % of control": 73.8, "call": "inactive"}
{"gene": "GPRIN2", "reagent no.": 2, "total luciferase, z-score": 2.2, "total luciferase, % of control": 126, "call": "inactive"}
{"gene": "GPRIN2", "reagent no.": 3, "total luciferase, z-score": 0.41, "total luciferase, % of control": 90, "call": "inactive"}
{"gene": "OAT", "reagent no.": 1, "total luciferase, z-score": -0.121, "total luciferase, % of control": 79.5, "call": "inactive"}
{"gene": "OAT", "reagent no.": 2, "total luciferase, z-score": 0.944, "total luciferase, % of control": 101, "call": "inactive"}
{"gene": "OAT", "reagent no.": 3, "total luciferase, z-score": 1.74, "total luciferase, % of control": 117, "call": "inactive"}
{"gene": "PRR18", "reagent no.": 1, "total luciferase, z-score": 3.87, "total luciferase, % of control": 159, "call": "active"}
{"gene": "PRR18", "reagent no.": 2, "total luciferase, z-score": -0.688, "total luciferase, % of control": 68.2, "call": "inactive"}
{"gene": "PRR18", "reagent no.": 3, "total luciferase, z-score": -1.15, "total luciferase, % of control": 59, "call": "inactive"}
{"gene": "GP9", "reagent no.": 1, "total luciferase, z-score": 1.48, "total luciferase, % of control": 111, "call": "inactive"}
{"gene": "GP9", "reagent no.": 2, "total luciferase, z-score": -0.406, "total luciferase, % of control": 73.8, "call": "inactive"}
{"gene": "GP9", "reagent no.": 3, "total luciferase, z-score": 2.14, "total luciferase, % of control": 125, "call": "inactive"}

Reagents listed above marked active (1):
{"gene": "PRR18", "reagent no.": 1, "total luciferase, z-score": 3.87, "total luciferase, % of control": 159, "call": "active"}

Additional reagents:
{"gene": "SPRR2B", "reagent no.": 1, "total luciferase, z-score": -0.461, "total luciferase, % of control": 72.7, "call": "inactive"}
{"gene": "SPRR2B", "reagent no.": 2, "total luciferase, z-score": 0.138, "total luciferase, % of control": 84.6, "call": "inactive"}
{"gene": "SPRR2B", "reagent no.": 3, "total luciferase, z-score": 1.4, "total luciferase, % of control": 110, "call": "inactive"}
{"gene": "IRS2", "reagent no.": 1, "total luciferase, z-score": 1.24, "total luciferase, % of control": 106, "call": "inactive"}
{"gene": "IRS2", "reagent no.": 2, "total luciferase, z-score": -0.274, "total luciferase, % of control": 76.4, "call": "inactive"}
{"gene": "IRS2", "reagent no.": 3, "total luciferase, z-score": -0.799, "total luciferase, % of control": 66, "call": "inactive"}
{"gene": "MED13L", "reagent no.": 1, "total luciferase, z-score": 1.08, "total luciferase, % of control": 103, "call": "inactive"}
{"gene": "MED13L", "reagent no.": 2, "total luciferase, z-score": -1.83, "total luciferase, % of control": 45.6, "call": "inactive"}
{"gene": "MED13L", "reagent no.": 3, "total luciferase, z-score": -0.985, "total luciferase, % of control": 62.3, "call": "inactive"}
